# Primary screen of a compound library

Source: ChEMBL document CHEMBL3988442, “University of Dundee, Small-Polar-MMV Screening Library” (2021).

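Whole-parasite assay of Trypanosoma brucei over 72 hours; the read-out is not stated. Concentration: 30 µM. The record gives no direction; compounds that gave an IC50 in retests scored well above the rest, so higher reads as stronger inhibition. Values scatter widely below zero; nearly all retest evidence comes from the higher of the two concentrations used. Of about 64,000 compounds tested this way, about 940 (1.5%) reached 50% or more in at least one test.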

The filed quantity is “Percent Effect” (%).
The record does not define 0% and 100%; most values in the screen are far below 50% and negative numbers occur (in some assays of this library far below -100).
The compounds are a random part of those screened.

For COCc1ccc(C(=O)N2CCCN(Cc3ccc(F)cc3)CC2)s1 the result was -25.91%.
For CNc1ncc(CN(C)C(=O)c2cccc(-n3cccn3)c2)cn1 the result was -11.19%.
For COc1cccc(C(=O)C2CCCN(c3cc(C#N)ccn3)C2)c1 (centres unmarked) the result was -13.56%.
For NCCn1cc(C(=O)NCc2ccccc2Cn2cccn2)nn1 the result was -5.827%.
For Cc1ccc(-c2cc(CS(=O)(=O)NC3CCCNC3=O)on2)cc1 (centres unmarked) the result was -0.7824%.
For CC(C)c1nn(C)c(N(C)C)c1CNC1CCOc2c(F)cccc21.Cl (centres unmarked) the result was -12.24%.
For Cc1ccnc(C2CCN(S(=O)(=O)c3cn(C)cn3)CC2)n1 the result was 4.378%.
For CN(C)CCn1c(=O)oc2ccc(NC(=O)N3CCCCCC3)cc21 the result was -6.32%.
For Cn1cnnc1-c1cncc(NCc2cccc3c2OCO3)c1 the result was -7.819%.
For CC(C)CCNC(=O)c1csc(NC2CC2)n1 the result was 55.59%.
For O=C1CC2(CCCCN2C(=O)c2ccoc2)CN1Cc1ccccc1 (centres unmarked) the result was -0.4158%.
For O=S1(=O)CCC(n2cc(CNc3ccccc3Br)cn2)C1 (centres unmarked) the result was -56.09%.
For Cc1ccsc1CNC(=O)Cc1c(C)nc2c(c1C)c(=O)[nH]n2C the result was 1.13%.
For Cc1cc(C)cc(C2(C(=O)N3CCCC(n4cncn4)C3)CC2)c1 (centres unmarked) the result was 11.54%.
For Cc1cccc(NC(=O)c2cccc(OCc3nnnn3C)c2)n1 the result was -53.1%.
For Cc1cccc(-c2cc(-c3c(C)nn(CCO)c3C)c(C#N)c(N)n2)c1 the result was 57.96%.
For CCc1[nH]ncc1C(=O)N1CCCN(Cc2cnn(C(C)C)c2)CC1 the result was -14.07%.
For CS(=O)(=O)NC1CCc2c(ccc(=O)n2CC2CC2)C1 (centres unmarked) the result was 37.22%.
For Cl.c1cnc(N2CCCC(NCc3ccc(-n4ccnc4)cc3)C2)nc1 (centres unmarked) the result was 10.24%.
For CN(C)S(=O)(=O)N1CCCCC1CCc1ccc(O)cc1 (centres unmarked) the result was -39.57%.
For Cc1nonc1N1CCN(Cc2nc(CC3CC3)no2)CC1 the result was -30.56%.
For CN1CCCC1CNC(=O)CCCOc1ccc(Cl)cc1 (centres unmarked) the result was 38.62%.
For Cc1noc(C)c1CNc1c(N2CCCC2)cccc1N1CCCC1 the result was 99.93%.
For Cn1cc(CN(Cc2cccc(-n3cccn3)c2)C2CC2)cn1 the result was -14.72%.
For CC(C)(O)CCc1ccc(C(=O)NCC2CCCOC2)cc1 (centres unmarked) the result was -4.183%.
For Cc1c(Br)c(C(F)F)nn1C(C)C(=O)O (centres unmarked) the result was -18.43%.
For CCCc1nc(C(C)(C)NC(=O)C2CC(=O)N(CCOC)C2)no1 (centres unmarked) the result was -14.65%.
For O=C(CN(Cc1cccs1)c1ccc(F)cc1)NC1CCOCC1 the result was -16.42%.
For O=c1c2ccccc2cnn1Cc1cncn1C1CC1 the result was 0.2124%.
For Cc1ccc(C(=O)NC2CCCN(S(C)(=O)=O)C2)c(=O)[nH]1 (centres unmarked) the result was -42.1%.
For Cc1cc(=O)c2ccccc2n1CC1CCCN(C)C1 (centres unmarked) the result was 6.908%.
For CN(CCNS(C)(=O)=O)CC(c1cccs1)N1CCOCC1 (centres unmarked) the result was -4.136%.
For Cc1n[nH]c2ncc(CNC3CCN(Cc4ccccn4)CC3)cc12.Cl the result was -2.543%.
For c1cc(CN2CCN(Cc3ccon3)C3(CCCCC3)C2)no1 the result was -56.75%.
For CC(c1cccc(-c2cn(Cc3ccoc3)nn2)c1)N(C)C (centres unmarked) the result was -32.12%.
For F[C@@H]1CN(Cc2ccccc2)C[C@@H]1OCc1nc2ccccc2[nH]1 the result was 0.8012%.
For O=C(CC1CC1)N1Cc2nccn2CC(COc2cccnc2)C1 (centres unmarked) the result was -0.3647%.
For CCC(C)N(Cc1sccc1C)C(=O)c1cnc[nH]1 (centres unmarked) the result was 10.5%.
For Cc1ccc(C(=O)NC(CN2CCCC2)c2ccccc2)c(=O)[nH]1 (centres unmarked) the result was -25.72%.
For COc1ccccc1-c1cccc(C2CCCN(C3CCOCC3)C2)n1 (centres unmarked) the result was -10.72%.
For O=C(Nc1nc(-c2ccccc2)ns1)N1CCC(CO)CC1 the result was 2.137%.
For CN1CCCN(S(C)(=O)=O)c2cc(F)ccc21 the result was -32.44%.
For CC(NC(=O)N1CCN(c2ccccc2O)CC1)c1nncn1C (centres unmarked) the result was 1.137%.
For Cc1cc(C)cc(CCC(=O)N(C)CCc2cn[nH]c2)c1 the result was -52.14%.
For Cc1ccc(CN2CCC3(CC2)C(=O)N(CC(C)C)CCN3C)s1.O=C(O)C(F)(F)F.O=C(O)C(F)(F)F the result was -75.61%.
For CC(=O)N1CCC(C(=O)N2CCCC(Cc3cccc(C)n3)C2)CC1 (centres unmarked) the result was -12.53%.
For Cc1ccc(CN2CCC3(CC2)NC(=O)CC3c2ccncc2)cc1C.O=C(O)C(F)(F)F.O=C(O)C(F)(F)F (centres unmarked) the result was -19.59%.
For Cc1nnc(CN2CCCC(c3noc(C4CC4)n3)C2)o1 (centres unmarked) the result was -15.13%.
For COc1cccc(-c2cc(C(=O)NCCCC(F)(F)F)[nH]n2)c1 the result was 0.4464%.
For CC(C)N(Cc1cccnc1)C(=O)CCSc1ccc(C#N)cc1 the result was -196%.
For Cc1cnn(CC2CCCCN2CCCS(=O)(=O)N(C)C)c1 (centres unmarked) the result was -30.38%.
For O=C(Cc1csc(N2CCNC2=O)n1)NCC1(c2ccccc2)CC1 the result was -11.38%.
For COc1ccc(C(C#N)NC(=O)CC2=CCCCC2)c(OC)c1 (centres unmarked) the result was -74.02%.
For CN1CCC2(CC1)CN(C)C(=O)C[C@@H]2C(F)(F)F the result was -51.21%.
For CC1(C)CCN(S(=O)(=O)N2CCCC(c3cccc(C(=O)O)c3)C2)CC1 (centres unmarked) the result was 9.152%.
For Cc1cc(N(C)Cc2ccsc2)n2nc(C)c(C)c2n1 the result was -49.39%.
For Cc1nc(COCc2cnc3n2CCN(CC2CCC2)C3C)cs1.O=C(O)C(F)(F)F (centres unmarked) the result was 77.97%.
For Cc1ccc(C)c(-n2ncc(C(=O)NCC3COC(C)(C)O3)c2N)c1 (centres unmarked) the result was -31.58%.

The first 6 entries again:

SMILES,Percent Effect
COCc1ccc(C(=O)N2CCCN(Cc3ccc(F)cc3)CC2)s1,-25.91
CNc1ncc(CN(C)C(=O)c2cccc(-n3cccn3)c2)cn1,-11.19
COc1cccc(C(=O)C2CCCN(c3cc(C#N)ccn3)C2)c1 (centres unmarked),-13.56
NCCn1cc(C(=O)NCc2ccccc2Cn2cccn2)nn1,-5.827
Cc1ccc(-c2cc(CS(=O)(=O)NC3CCCNC3=O)on2)cc1 (centres unmarked),-0.7824
CC(C)c1nn(C)c(N(C)C)c1CNC1CCOc2c(F)cccc21.Cl (centres unmarked),-12.24